Measurements reported in PubChem BioAssay AID504793 (Drosophila RNAi Screening Center, 2011).
The screen tested about 23,000 reagents; shown is a random part of those that have a named target and a result. In the full data, 62 (0.27%) are marked active. 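Calls come from follow-up tests whose scores are not deposited, so confirmed genes may have low counts here; counts are not normalised per plate.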 Raw values are not corrected between plates. A plus sign joins genes that one reagent is predicted to hit.

Purpose: 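Genes required for cells to halt at G2/M after double-strand DNA breaks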 (primary screen)
Cell system: Drosophila S2R+ cells
Reagents: long dsRNA against Drosophila genes, about 0.25 µg dsRNA per well
Time to read-out: 4 days of dsRNA, then 4 hours of drug before read-out
Treatment: doxorubicin 0.5 µM for 4 hours to cause double-strand breaks, in cells also given a low, harmless dose of dsRNA against nbs to sensitise the assay
Detection: 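Per-well count of mitotic cells stained for phospho-histone H3 after doxorubicin exposure, used as mitotic index; counts are raw and not normalised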
Reading the numbers: mitotic cells: higher = more cells in mitosis, weaker G2 arrest
Active means: 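a call needs confirmation in secondary tests, with other dsRNAs and a check of mitotic timing without damage, not just a high primary count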
Meaning of the calls: active = confirmed in follow-up tests; inactive = not confirmed

| predicted target | DRSC id | mitotic cells, replicate 1 | Outcome |
| --- | --- | --- | --- |
| Gapdh1 | DRSC07433 | 13 | inactive |
| Gapdh1 | DRSC25746 | 9 | inactive |
| me31B | DRSC03569 | 21 | active |
| Csk | DRSC12861 | 14 | inactive |
| Csk | DRSC23272 | 2 | inactive |
| Csk | DRSC26697 | 8 | inactive |
| RpL36 | DRSC18708 | 12 | inactive |
| krimp | DRSC06578 | 9 | inactive |
| blow | DRSC07586 | 8 | inactive |
| blow | DRSC27716 | 3 | inactive |
| Tsc1 | DRSC16890 | 7 | inactive |
| Tsc1 | DRSC27643 | 10 | inactive |
| emb | DRSC03528 | 4 | inactive |
| CG43328 | DRSC05640 | 6 | inactive |
| CG3347 | DRSC00597 | 7 | inactive |
| Rab27 | DRSC18567 | 7 | inactive |
| sle | DRSC14557 | 10 | inactive |
| YME1L | DRSC04378 | 9 | inactive |
| CG10332 (retired record) + IM18 | DRSC04064 | 13 | inactive |
| CG42514 | DRSC10428 | 4 | inactive |
| Der-2 | DRSC15021 | 5 | inactive |
| CG12054 | DRSC23137 | 13 | inactive |
| CG15579 | DRSC18067 | 15 | inactive |
| CG13065 | DRSC09948 | 2 | inactive |
| CG13065 | DRSC28005 | 5 | inactive |
| Ankrd49 | DRSC01894 | 9 | inactive |
| Ankrd49 | DRSC29117 | 7 | inactive |
| DIP-epsilon | DRSC00932 | 13 | inactive |
| DIP-epsilon | DRSC02313 | 2 | inactive |
| DIP-epsilon | DRSC26835 | 9 | inactive |
| CG16786 | DRSC04281 | 7 | inactive |
| mRNA-cap | DRSC19789 | 14 | inactive |
| SCAR | DRSC03426 | 3 | inactive |
| Rbp1-like | DRSC19828 | 6 | inactive |
| Rbp1-like | DRSC22075 | 11 | inactive |
| Rbp1-like | DRSC25442 | 4 | inactive |
| Dgp-1 | DRSC07400 | 8 | inactive |
| CAH8 | DRSC15784 | 5 | inactive |
| GM130 | DRSC04617 | 8 | inactive |
| CG6865 | DRSC10732 | 5 | inactive |
| CG8526 | DRSC16438 | 5 | inactive |
| CG8526 | DRSC26422 | 6 | inactive |

Already shown: an excerpt of the list.
| predicted target | DRSC id | mitotic cells, replicate 1 | Outcome |
| --- | --- | --- | --- |
| CG43328 | DRSC05640 | 6 | inactive |
| CG3347 | DRSC00597 | 7 | inactive |
| Rab27 | DRSC18567 | 7 | inactive |
| sle | DRSC14557 | 10 | inactive |
| YME1L | DRSC04378 | 9 | inactive |
| CG10332 (retired record) + IM18 | DRSC04064 | 13 | inactive |
| CG42514 | DRSC10428 | 4 | inactive |
| Der-2 | DRSC15021 | 5 | inactive |
| CG12054 | DRSC23137 | 13 | inactive |
| CG15579 | DRSC18067 | 15 | inactive |
| CG13065 | DRSC09948 | 2 | inactive |
| CG13065 | DRSC28005 | 5 | inactive |

Additional reagents:
| predicted target | DRSC id | mitotic cells, replicate 1 | Outcome |
| --- | --- | --- | --- |
| dati | DRSC17128 | 12 | inactive |
| dati | DRSC17153 | 14 | inactive |
| dati | DRSC25407 | 2 | inactive |
| Nup58 | DRSC16235 | 17 | inactive |
| Nup58 | DRSC27863 | 5 | inactive |
| pelo | DRSC03588 | 2 | inactive |
| CG6006 | DRSC13137 | 8 | inactive |
| CG6006 | DRSC15946 | 8 | inactive |
| Atx-1 | DRSC18365 | 11 | inactive |
| TER94 | DRSC07560 | 14 | inactive |
| TER94 | DRSC27600 | 28 | inactive |
| mRpS22 | DRSC14488 | 7 | inactive |
| mRpS22 | DRSC28355 | 4 | inactive |
| CG42331 | DRSC14633 | 7 | inactive |
| CG42331 | DRSC16126 | 14 | inactive |
| CG42331 | DRSC25930 | 5 | inactive |
| CG32687 | DRSC18210 | 17 | inactive |
| CG32687 | DRSC18237 | 9 | inactive |
| CG8204 | DRSC07106 | 9 | inactive |
| Rcd6 | DRSC06054 | 7 | inactive |
| Rcd6 | DRSC27115 | 9 | inactive |
| SmydA-6 | DRSC07341 | 6 | inactive |
| Ir21a | DRSC00528 | 5 | inactive |
| Acbp3 | DRSC11022 | – | inactive |
| Acbp3 | DRSC25356 | 4 | inactive |
| CG8888 | DRSC07294 | 8 | inactive |
| CG8888 | DRSC07295 | 2 | inactive |
| DIP1 | DRSC20818 | 11 | inactive |
| DIP1 | DRSC27354 | 11 | inactive |
| Ccdc114 | DRSC15025 | 6 | inactive |
| lama | DRSC11361 | 13 | inactive |
| CG2202 | DRSC19841 | 8 | inactive |
| CG2202 | DRSC23452 | 3 | inactive |
